Results as given in publication PMC11749260.
Results are given in words; binding and its absence hold for the method and conditions named. Binding seen in cells or lysates may run through a third protein. Some entries that bind do so weakly or less than the wild type. For part of these data: Tags and fused reporters may be left off the sequences shown. Each block holds one binder with its values, some of them ahead of it.

Legend:
[1] = target: T1, Trim21 (E3 ubiquitin-protein ligase) (mouse (endogenous in C2C12)) (UniProt Q62191); experiment: co-IP; IP of endogenous Trim21 from C2C12 myoblast lysate with Trim21 antibody (10 µg, overnight at 4°C) and Dynabeads Protein G; Western blotting of the retrieved proteins
T1 sequence: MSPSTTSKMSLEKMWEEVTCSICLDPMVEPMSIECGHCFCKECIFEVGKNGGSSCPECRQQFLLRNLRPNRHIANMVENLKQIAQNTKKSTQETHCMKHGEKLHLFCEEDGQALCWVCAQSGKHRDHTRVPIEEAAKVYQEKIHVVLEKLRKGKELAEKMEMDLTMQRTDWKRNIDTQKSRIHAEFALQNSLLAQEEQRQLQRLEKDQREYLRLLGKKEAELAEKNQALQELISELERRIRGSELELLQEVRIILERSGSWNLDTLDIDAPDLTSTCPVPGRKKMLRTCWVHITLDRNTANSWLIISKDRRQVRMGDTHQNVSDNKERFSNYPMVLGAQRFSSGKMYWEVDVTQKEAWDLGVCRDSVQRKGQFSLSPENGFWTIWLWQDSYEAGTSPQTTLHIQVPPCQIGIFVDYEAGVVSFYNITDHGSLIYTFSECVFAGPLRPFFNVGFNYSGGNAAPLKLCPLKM

[2] = target: T2, Flag-tagged Sugt1 (suppressor of G2 allele of SKP1 homolog) (UniProt Q9CX34); experiment: co-IP; Flag-Sugt1 overexpressed in C2C12; lysate incubated with anti-Flag magnetic beads at 4°C overnight; Western blotting for Trim21
T2 sequence: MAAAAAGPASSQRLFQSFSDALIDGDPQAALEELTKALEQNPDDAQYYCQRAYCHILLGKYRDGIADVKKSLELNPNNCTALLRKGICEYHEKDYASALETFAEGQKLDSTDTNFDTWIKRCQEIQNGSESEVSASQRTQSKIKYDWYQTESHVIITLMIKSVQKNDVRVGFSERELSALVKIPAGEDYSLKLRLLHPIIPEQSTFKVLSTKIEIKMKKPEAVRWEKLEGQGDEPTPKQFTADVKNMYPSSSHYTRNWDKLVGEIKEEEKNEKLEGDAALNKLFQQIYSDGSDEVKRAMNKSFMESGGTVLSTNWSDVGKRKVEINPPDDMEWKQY

binding [1]: binds
B1: Sugt1 (suppressor of G2 allele of SKP1 homolog), endogenous (protein, UniProt Q9CX34 1-336)
chain: T2 sequence

binding [2]: binds
B2: Trim21 (E3 ubiquitin-protein ligase) (protein, UniProt Q62191 1-470)
chain: T1 sequence

binding [1]: binds
B3: p21 (protein, UniProt P39689 1-159)
chain: MSNPGDVRPVPHRSKVCRCLFGPVDSEQLRRDCDALMAGCLQEARERWNFDFVTETPLEGNFVWERVRSLGLPKVYLSPGSRSRDDLGGDKRPSTSSALLQGPAPEDHVALSLSCTLVSERPEDSPGGPGTSQGRKRRQTSLTDFYHSKRRLVFCKRKP
